In patent US6693085B2, “Macrolide compound JK” (Higeta Shoyu Co., Ltd., priority 2000, dated 2004):
For at least one compound, name, drawing or mass did not settle the structure. Some results were stated once for a whole list of compounds, not compound by compound.

Experiments:
[1] = system: Actinomadura pelletieri IFM0903; assay: Sensitivity of the producing strain against antibiotics; type: cell-based; details: Actinomadura pelletieri IFM0903, strain characterisation
[2] = system: HL-60; assay: Cytotoxicity, MTT growth inhibition; type: cell-based, human; details: HL-60 cells, 72 hours
[3] = system: L1210; assay: Cytotoxicity, MTT growth inhibition; type: cell-based, human; details: L1210 cells, 72 hours

| SMILES | Sensitivity against Antibiotics [1] | 50% growth inhibition concentration (IC50 value) [2] [µg/mL] | 50% growth inhibition concentration (IC50 value) [3] [µg/mL] |
| --- | --- | --- | --- |
| C[C@@H](O)[C@H]1C(=O)N2C(C(=O)O)=C(SCCN=CN)C[C@H]12 [Imipenem] | positive |  |  |
| CCCC1C=CC2C=C(C)C(OC3CC(NC)C(NC(=O)c4c(O)ccc(Cl)c4C)C(C)O3)CC=CC3C(CC)=CC4C(O)C(O)CC(C)C4C3(C)C(=O)C3=C(O)C2(C1)OC3=O (stereo not drawn) [JK-1] |  | > 100 | > 100 |
| CCCC1C=CC2C=C(C)C(OC3CC(N)C(NC(=O)c4c(O)ccc(Cl)c4C)C(C)O3)CC=CC3C(CC)=CC4C(O)C(O)CC(C)C4C3(C)C(=O)C3=C(O)C2(C1)OC3=O (stereo not drawn) [JK-2] |  | > 100 | > 100 |
| NC[C@H]1O[C@H](O[C@H]2[C@H](O)[C@@H](O[C@H]3O[C@H](CO)[C@@H](O)[C@H](N)[C@H]3O)[C@H](N)C[C@@H]2N)[C@H](O)[C@@H](O)[C@@H]1O [Kanamycin] | positive |  |  |
